# doi:10.1101/2021.05.06.442985
# By UniProt entry, the sequences of proteins in these tests, tags left out. Where a name states a change or a piece, a line headed by the entry shows the natural chain unless it says otherwise.
# UniProt P05556: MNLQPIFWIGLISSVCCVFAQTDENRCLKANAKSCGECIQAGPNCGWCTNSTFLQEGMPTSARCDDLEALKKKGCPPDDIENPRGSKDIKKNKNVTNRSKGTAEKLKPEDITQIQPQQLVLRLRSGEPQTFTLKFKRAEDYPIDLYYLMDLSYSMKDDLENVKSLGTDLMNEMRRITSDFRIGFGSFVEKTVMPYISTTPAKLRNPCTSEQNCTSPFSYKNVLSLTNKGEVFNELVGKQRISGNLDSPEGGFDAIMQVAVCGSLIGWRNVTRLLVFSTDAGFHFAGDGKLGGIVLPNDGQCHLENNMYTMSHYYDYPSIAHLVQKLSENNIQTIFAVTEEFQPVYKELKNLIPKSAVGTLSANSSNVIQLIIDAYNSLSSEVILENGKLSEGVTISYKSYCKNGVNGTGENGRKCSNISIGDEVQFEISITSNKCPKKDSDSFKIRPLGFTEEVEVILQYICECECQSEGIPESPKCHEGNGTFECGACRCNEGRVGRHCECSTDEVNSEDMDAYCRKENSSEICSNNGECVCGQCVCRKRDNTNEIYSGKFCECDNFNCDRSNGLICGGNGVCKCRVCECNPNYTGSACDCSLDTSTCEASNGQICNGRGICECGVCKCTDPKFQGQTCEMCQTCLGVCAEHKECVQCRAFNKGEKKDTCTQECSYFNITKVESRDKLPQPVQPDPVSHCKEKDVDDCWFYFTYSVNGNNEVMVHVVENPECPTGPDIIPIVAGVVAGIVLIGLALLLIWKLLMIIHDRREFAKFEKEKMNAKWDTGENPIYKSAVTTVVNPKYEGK
# No constants are given. Whether binding was seen depends on the method and setting. In cells and extracts the contact can be indirect. Some entries that bind do so weakly or less than the wild type.
# Target: vascular endothelial growth factor receptor 2 (VEGFR2) (human (endogenous in HUVEC)) (UniProt P35968)
# Assay: co-IP
substance,measurement,value
integrin β1 (ITGB1) (from UniProt P05556 21-798) (receptor),binding,binds
